Earlier results, collected in patent publication US20240165097A1, “PHARMACEUTICAL COMPOSITION FOR THE TREATMENT OF ALZHEIMER'S DISEASE OR DEMENTIA” (Heptares Therapeutics Limited, priority 2021, published 2024).
Some of these results come from one statement about several compounds together.

Conditions: in vivo; cited from earlier work

CCN(C)C(=O)Oc1cccc([C@H](C)N(C)C)c1 [rivastigmine, 3-[(1S)-1-(dimethylamino)ethyl]phenyl ethyyl(methyl)carbamate]
P3b amplitude and latency, ES: 0.08-0.21
